Some of these results come from one statement about several compounds together.
Assays:
CFA-hindpaw inflammation = experiment: CFA-hindpaw inflammation, paw pressure test (CFA-PPT), intraperitoneal injection; format: in vivo, rat; settings: Diclofenac 68.1 mg/kg ip
Method: An interaction study was performed as a single dose study in the CFA-hindpaw inflammation, paw pressure test.
In comparative example 1 and inventive examples 1 to 4 described below, a compound or combination of compounds was administered by intraperitoneal injection (FIGS. 1 to 9).
(§1) The pain was measured by pressing a pointer on the inflamed paw. The pointer exerts a force, increasing at a constant rate, monitored by a linear scale. Pain is deemed to be perceived one the rat starts to withdraw the paw. This value (withdrawal threshold in gram) is the pressure at which the animal feels pain (cut-off 450 g). Efficacy of the test compounds is expressed as a percent change of withdrawal threshold after compound administration to the pre-value (withdrawal threshold before compound administration).

[1] = system: CFA-induced edema of paw / mechanical-hyperalgesia; experiment: CFA-hindpaw inflammation, paw pressure test (CFA-PPT), topical application to the paw; format: in vivo, rat
Method: In comparative example 2 and inventive examples 5 to 8 as described below, a compound or combination of compounds was administered topically to the paw by means of an ointment or solution (FIGS. 10 to 18).
The efficacy was tested when a compound or a compositions of compounds was administered topically as an ointment or a solution. The study was performed on male albino rats (150-180 g body weight) to which an edema of paw was induced by injection of Complete Freunds Adjuvant (CFA). CFA is a composition of inactivated and dried Myobacteria tuberculoses, emulsified in mineral oil which is used as an immunopotentiator causing a painful reaction that lasts 7-8 days after subcutaneous injection.
The studies of comparative example 2 and inventive examples 5 to 8 were performed according to the following procedure: 50 μL of CFA were injected sub plantar into the right hind paw, inducing mechanical-hyperalgesia after 24 hours. […]
as §1, with “Pain is deemed to be perceived one the rat starts to withdraw the paw. This value (withdrawal threshold in gram) is the pressure at which the animal feels pain (cut-off 450 g).” left out

O=C(O)Cc1ccccc1Nc1c(Cl)cccc1Cl [Diclofenac, 2-(2,6-dichloranilino) phenylacetic acid]
efficacy (% change to prevalue) when given alone (CFA-hindpaw inflammation): 20-25%
efficacy (% change to pre-value) when given alone ([1]; Diclofenac 60 mg/ml topical, alone, after 90 min): 15-25%
efficacy (% change to prevalue) ([1]; Diclofenac 80 mg/ml topical alone, 150 to 180 min window): under 15%

From patent publication US20190374481A1, “ADMINISTRATION REGIMEN FOR A PHARMACEUTICAL PATCH COMPRISING LIDOCAINE AND DICLOFENAC” (TEIKOKU SEIYAKU CO., LTD., priority 2017, published 2019)
